At least one structure is not confirmed: it was looked up by name or label, or the drawing left a doubt.
Experiments:
[1] = system: Hbb^th3/+ mouse model of β-thalassemia intermedia; assay: Combination study: organ weights and tissue iron (ICP-OES) in liver, spleen, kidney
[2] = system: Hbb^th3/+ mouse model of β-thalassemia intermedia; assay: Combination study: complete blood counts (ProCyte Dx); format: in vivo
Procedure: Complete blood counts were performed on fresh EDTA-blood on an automated blood cell analyzer (ProCyte Dx®, IDEXX Laboratories) in-house.

[3] = system: Hbb^th3/+ mouse model of β-thalassemia intermedia; assay: Combination study: hemoglobin (HemoCue photometer); format: in vivo; settings: Hbbth3/+ animals (FIG. 6)
Procedure: One day after switching to lid a blood sample was taken by tail vein incision to determine the baseline Hb levels. Hb was measured using a HaemoCue® device. Hb was also measured on days 8, 15, and 22 in the morning before dosing. The animals were dosed p.o. D with 30 mg/kg DFX in 30% Kolliphor, 120 mg/kg Fpn127 in 0.5% C, or both for a total of 17 doses during the 23 days of study. 30% Kolliphor and 0.5% C were dosed as vehicles. The dose of DFX was administered at the beginning of the dark cycle (active phase) at 9:00 followed by 3 h of access to lid. Then, mice were dosed with Fpn127 (or 0.5% C) and were given access to sd for a 6 h period before switched back to lid. On the dosing was paused and mi had access to lid ad libitum.
Hb was measured on days 1, 8, 15 and 22. Individual Hb values were determined at the starting day of the experiment (day 1) and weekly thereafter during the experimental phase in the morning before the first daily dose. A blood sample was taken by tail vein incision and Hb was measured using a HemoCue® DM201 Hb photometer.

[4] = system: Hbb^th3/+ mouse model of β-thalassemia intermedia; assay: Combination study: serum iron (MULTIGENT Iron assay), transferrin ELISA and calculated TSAT; format: in vivo
Procedure: […] Anesthetized animals were subsequently euthanized by cervical dislocation.
Serum levels of iron were determined in triplicates using MULTIGENT Iron assay (Abbott Diagnostics, Cat. 6K95). Serum Transferrin (TO was measured in duplicates using a mouse-specific ELISA according to the manufacturer's instructions (Abcam, Cat. ab157724). Transferrin saturation (TSAT) was calculated using the formula: […]

[5] = system: Hbb^th3/+ mouse model of β-thalassemia intermedia; assay: Combination study: flow cytometric analysis of intracellular ROS, mitochondria and PS exposure in mature RBC; format: in vivo
Procedure: In peripheral blood taken on day 22 by tail vein incision, ROS were detected with the indicator chloromethyl-2′,7′-dichlorodihydrofluorescein diacetate (CM-H2DCFDA, Invitrogen), the presence of mitochondria was detected with MitoTracker Deep Red FM (Invitrogen), and PS exposure was detected using the Annexin V Apoptosis Detection Kit (Invitrogen) in mature RBC labelled with Ter119 and CD71 antibodies.
For all analysis, cells were analyzed on a CANTOII cytometer (BD Biosciences) and data were analyzed using FlowJo® software (FlowJo, LLC, version 10.2).

[6] = system: Hbb^th3/+ mouse model of β-thalassemia intermedia; assay: Combination study: erythroid differentiation stages in spleen by flow cytometry (Ter119/CD44/CD71); format: in vivo; settings: Hbbth3/+ mice (FIG. 9)
From the text: Distinct stages of erythroid cell differentiation in spleens of female mice were identified by flow cytometry (CANTOII cytometer, BD Biosciences) using PE-conjugated rat anti-mouse CD71 (transferrin receptor-1, eBioscience, Cat. 12-0711), APC-conjugated rat anti-mouse Ter119 (erythroid lineage marker, eBioscience, Cat. 17-5921) and APC-Cy7-conjugated rat anti-mouse CD44 (adhesion molecule that progressively decreases on the surface of developing erythroid cells, BioLegend. Cat. 103028) antibodies. Data were analyzed using FlowJo® software (FlowJo. LLC, version 10.1) Serum Parameters

[7] = system: Hbb^th3/+ mouse model of β-thalassemia intermedia; assay: Combination study: serum EPO (DuoSet ELISA); format: in vivo; settings: Hbbth3/+ animals; day 23 (FIG. 10)
Procedure: On day 23 (study end) 1 hour after dosing blood was collected by retro-orbital bleeding from pre-terminally anesthetized mice into BD Microtainer Tubes (Cat. 365967 and 365975) for determination of serum iron, transferrin, erythropoietin and compound exposure. Anesthetized animals were subsequently euthanized by cervical dislocation.
[formula] Serum EPO was measured using a mouse-specific DuoSet ELISA according to the manufacturer's instructions (R&D Systems, Cat. DY959). Plasma concentrations of Fpn127 and DFX were measured at GVK Biosciences, Hyderabad, IN. Flow Cytometric Analysis of Intracellular ROS, Mitochondria, and PS Exposure

## O=C(O)c1ccc(-n2nc(-c3ccccc3O)nc2-c2ccccc2O)cc1 [DFX, deferasirox, reference compound]
[1]; end of study (FIG. 3)
  effect on total liver iron concentration vs vehicle-treated th3/+ mice: significantly reduced
[1]; end of study (FIG. 4)
  effect on total spleen iron concentration vs vehicle-treated th3/+ mice: No treatment effect
[1]; end of study (FIG. 5)
  effect on total kidney iron concentration vs vehicle-treated Hbbth3/+ mice: significantly reduced
[2]; Hbb^th3/+ mice, day 23 (FIG. 8), for DFX alone: total leukocyte and lymphocyte counts
  leukocyte, neutrophil and lymphocyte counts: did not change significantly
[2]; Hbbth3/+ mice, day 23 (FIG. 7)
  RBC indices (RBC counts, hematocrit, RDW, reticulocyte counts): failed to improve
[3]
  Hb levels during the study duration: transient increase
[4]; Hbbth3/+ mice, day 23 (FIG. 10)
  effect on TSAT: did not affect TSAT
[4]; day 23, last Fpn127 dose given 20 h before (FIG. 10)
  effect on serum iron vs vehicle treated th3/+ and WT animals: no changes
[5]; Hbbth3/+ mice (FIG. 12)
  proportion of PS-positive RBC (annexin V staining): no effect on PS exposure
[5]; Hbbth3/+ mice, summary
  RBC function/quality (oxidative stress, apoptosis and maturation): failed to improve RBC function
[6]
  percentage of immature erythroid cells in spleen: not able to revert this phenotype
[7]
  effect on EPO levels: did not reach statistical significance
